Some of these results come from one statement about several compounds together.
Experiments:
Format in all cases: in vivo
[1] = test system: vetch aphid (Megoura viciae); assay: Vetch aphid on sprayed broad bean leaf disks, contact or systemic; conditions: 2500 ppm, 5 days
[2] = test system: green peach aphid (Myzus persicae); assay: Green peach aphid, systemic, liquid artificial diet under artificial membrane; conditions: 2500 ppm, 3 days
[3] = test system: Mediterranean fruitfly (Ceratitis capitata); assay: Mediterranean fruitfly egg/larval mortality on sprayed insect diet, microtiter plates; conditions: 2500 ppm; egg and larval mortality after 5 days
[4] = test system: tobacco budworm (Heliothis virescens); assay: Tobacco budworm egg/larval mortality on sprayed insect diet, 96-well microtiter plates; conditions: 2500 ppm; egg and larval mortality after 5 days
[5] = test system: boll weevil (Anthonomus grandis); assay: Boll weevil egg/larval mortality on sprayed insect diet, 24-well microtiter plates; conditions: 2500 ppm; egg and larval mortality after 5 days
[6] = test system: spider mite (tetranychus spp.); assay: Spider mite on sprayed potted cotton plants; conditions: 300 ppm; population reduction after 24, 72 and 120 hours
[7] = test system: diamond back moth (plutella xylostella); assay: Diamond back moth, Chinese cabbage leaf dip test; conditions: 300 ppm, recorded 24, 72 and 120 hours after treatment
[8] = test system: orchid thrips (Dichromothrips corbetti); assay: Orchid thrips floral-immersion test; conditions: 300 ppm, after 4 days
[9] = test system: southern armyworm (spodoptera eridania, 2nd instar larvae); assay: Southern armyworm, Sieva lima bean leaf dip test; conditions: 300 ppm, at 4 days
[10] = test system: cotton aphid (aphis gossypii); assay: Cotton aphid, cotton cotyledon dip test; conditions: 300 ppm; cotyledons dipped; after 5 days
[11] = test system: cowpea aphid (aphis craccivora); assay: Cowpea aphid on sprayed potted cowpea plants; conditions: 300 ppm; population reduction assessed after 24, 72 and 120 hours
[12] = test system: rice brown plant hopper (nilaparvata lugens); assay: Rice brown plant hopper on sprayed rice seedlings; conditions: 300 ppm, adults, after 72 hours

Measured: mortality in comparison with untreated controls

Cc1nccc(CN2C(=O)c3cc(-c4ccc(F)c(F)c4F)ccc3S2(=O)=O)c1C [I.38]
over 75%: [1] | [2] | [3] | [4] | [5]

Cc1nccc(CN2C(=O)c3cc(-c4ccc(Cl)cc4Cl)ccc3S2(=O)=O)c1C [I.24]
over 75%: [6]

O=C1c2cc(-c3ccc(F)cc3F)ccc2S(=O)(=O)N1Cc1ccncc1 [I.20]
over 75%: [7] | [8]

COc1cc(CN2C(=O)c3cc(-c4ccc(Cl)cc4Cl)ccc3S2(=O)=O)ccn1 [I.18]
over 75%: [1] | [2] | [4] | [5]

COc1ccc2c(CN3C(=O)c4cc(-c5ccc(F)cc5F)ccc4S3(=O)=O)ccnc2c1 [I.27]
over 75%: [1] | [7] | [2] | [3] | [8]

O=C1c2cc(-c3ccc(Cl)cc3Cl)ccc2S(=O)(=O)N1Cc1ccnc2cc(F)ccc12 [I.31]
over 75%: [7] | [9] | [10] | [11] | [8]

Cc1cnccc1CN1C(=O)c2cc(-c3ccc(F)cc3F)ccc2S1(=O)=O [I.25]
over 75%: [1] | [3]

Cc1nccc(CN2C(=O)c3cc(-c4ccc(C(F)(F)F)cc4Cl)ccc3S2(=O)=O)c1C [I.34]
over 75%: [1] | [2]

O=C1c2cc(-c3ccc(OC(F)(F)F)cc3)ccc2S(=O)(=O)N1Cc1ccnc2ccccc12 [I.8]
over 75%: [6]

Cc1nccc(CN2C(=O)c3cc(-c4ccc(F)cc4F)ccc3S2(=O)=O)c1C [I.23]
over 75%: [12] | [8] | [6]

O=C1c2cc(-c3ccc(Cl)cc3Cl)ccc2S(=O)(=O)N1Cc1ccncc1F [I.29]
over 75%: [11]

O=C1c2cc(-c3ccc(Cl)cc3Cl)ccc2S(=O)(=O)N1Cc1ccnc2ccccc12 [I.9]
over 75%: [1] | [12] | [2] | [3] | [4] | [5]

COc1cc(CN2C(=O)c3cc(-c4ccc(F)cc4F)ccc3S2(=O)=O)ccn1 [I.19]
over 75%: [7] | [9] | [8] | [6]

O=C1c2cc(-c3ccccc3C(F)(F)F)ccc2S(=O)(=O)N1Cc1ccnc2ccccc12 [I.12]
over 75%: [1] | [2] | [3] | [4] | [5]

O=C1c2cc(-c3ccc(F)cc3F)ccc2S(=O)(=O)N1Cc1ccnc2ccccc12 [I.15]
over 75%: [7] | [12] | [11] | [8] | [6]

O=C1c2cc(-c3ccc(C(F)(F)F)cc3Cl)ccc2S(=O)(=O)N1Cc1ccnc2ccccc12 [I.11]
over 75%: [12] | [6]

Cc1cnccc1CN1C(=O)c2cc(-c3ccc(C(F)(F)F)cc3C(F)(F)F)ccc2S1(=O)=O [I.26]
over 75%: [2] | [4]

O=C1c2cc(-c3ccc(Cl)cc3Cl)ccc2S(=O)(=O)N1Cc1ccncc1 [I.17]
over 75%: [1] | [2] | [3] | [4] | [5]

Cc1nccc(CN2C(=O)c3cc(-c4ccc(Cl)cc4C(F)(F)F)ccc3S2(=O)=O)c1C [I.35]
over 75%: [1] | [2]

O=C1c2cc(-c3ccc(F)cc3F)ccc2S(=O)(=O)N1Cc1ccnc2cc(C(F)(F)F)ccc12 [I.28]
over 75%: [10] | [4]

O=C1c2cc(-c3ccccc3Cl)ccc2S(=O)(=O)N1Cc1ccnc2ccccc12 [I.13]
over 75%: [12]

— US20110166162A1, “1,2-Benzisothiazole Compounds Useful for Combating Animal Pests” (priority 2007, published 2011)
